{"sequences": {"note": "The chains behind the UniProt entries cited, without tags or fusion partners. Where a name states a change or a piece, a line headed by the entry shows the natural chain unless it says otherwise.", "UniProt P06239": "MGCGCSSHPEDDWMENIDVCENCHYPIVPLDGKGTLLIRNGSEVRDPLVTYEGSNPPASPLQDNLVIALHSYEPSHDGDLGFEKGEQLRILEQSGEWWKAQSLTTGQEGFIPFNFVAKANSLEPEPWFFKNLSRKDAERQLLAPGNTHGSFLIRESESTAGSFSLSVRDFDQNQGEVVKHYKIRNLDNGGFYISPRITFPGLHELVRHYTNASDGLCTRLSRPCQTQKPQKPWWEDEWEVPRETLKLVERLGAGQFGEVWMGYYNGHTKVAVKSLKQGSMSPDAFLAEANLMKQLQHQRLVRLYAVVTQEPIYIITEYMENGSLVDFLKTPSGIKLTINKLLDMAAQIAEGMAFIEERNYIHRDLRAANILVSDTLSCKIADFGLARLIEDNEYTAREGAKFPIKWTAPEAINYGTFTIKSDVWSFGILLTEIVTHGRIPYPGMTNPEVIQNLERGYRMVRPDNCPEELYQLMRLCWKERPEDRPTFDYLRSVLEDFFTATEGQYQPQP"}, "source": "patent EP1150995B1", "about": "“A SYNTHETIC PEPTIDE DISTURBING INTRACELLULAR SIGNALING” (Bukwang Pharmaceutical Co., Ltd., priority 1999, dated 2000)", "assay_type_in_all_cases": "cell-based", "key": {"Lck": {"biological_target": "T1, Lck (Homo sapiens, UniProt P06239)", "T1 construct": "Cell lysate was subjected to electrophoresis on SDS-polyacryl amide gel; endogenous in cells; host or cells: Jurkat cells", "test": "Immunoblot of signal pathway components in treated Jurkat cells: Lck", "details": "Jurkat cell, 50 µg/ml or 300 µg/ml, 6 hours; FIG. 5"}, "[1]": {"system": "human hepatocellular carcinoma (SNU-398)", "test": "Microscopy of cancer cell number and shape after peptide treatment", "details": "FIG. 8 (8B Pc, 8C LPc, 8D LP1)"}, "Jurkat cell": {"system": "Jurkat cell", "test": "Inhibition of phosphorylation of intracellular proteins (anti-phosphotyrosine blot of cell lysate)", "details": "comparative peptides, 37°C, 12 hours, concentration not given; FIG. 4B"}}, "note": "Part of at least one peptide drawing is inferred or uncertain, most often the ends. Where no end group is shown, it is not given here."}
{"sequence": "KEAPAPVANPD [Pc]", "values": [{"measurement": "Lck kinase activity", "setting": "Lck", "result": "not"}, {"measurement": "density of cancer cells and morphological change of cancer cells", "setting": "[1]", "result": "no or only insignificant changes"}, {"measurement": "phosphorylation of tyrosine within cells", "setting": "Jurkat cell", "result": "basic level of phosphorylation"}]}
